Test results as given in patent publication US20210346359A1, “Use of CFTR Modulators For Treating Cerebrovascular Conditions” (Qanatpharma AG, priority 2018, published 2021).
Where “and” joins values, the source holds several entries; their conditions need not be identical. Equal entries are not always repeated.

Tests used:
[1] = system: posterior cerebral arteries; experiment: Myogenic tone of isolated posterior cerebral arteries after in vivo treatment; parameters: species or system mouse
Text: Myocardial infarction: HF was induced by surgical ligation of the left anterior descending coronary artery (3). Briefly, mice were anaesthetized with isoflurane, intubated with a 20-gauge angiocatheter and ventilated with room air. Under sterile conditions, the thorax and pericardium were opened, and the left anterior descending coronary artery was permanently ligated with 7-0 silk suture (Deknatel: Fall River, USA). In sham-operated controls, the thorax and pericardium were opened, but the left anterior descending coronary artery was not ligated. Following the procedure, the chest was closed and the mice were extubated upon spontaneous respiration. Posterior cerebral arteries (PCAs) were isolated 4-6 weeks post-infarction. […]
(§1) Myogenic responses were elicited by step-wise 20 mmHg increases in transmural pressure from 20 mmHg to 80 mmHg (olfactory arteries) or 100 mmHg (posterior cerebral arteries and cremaster skeletal muscle resistance arteries). At each pressure step, vessel diameter (diaactive) was measured once a steady state was reached (5 min). Vessels requiring treatment (e.g., CFTR(inh)-172) were incubated with the reagent in MOPS for 30 min and myogenic responses were then assessed in the presence of that reagent. Following completion of all diaactive measurements, MOPS buffer was replaced with a Ca^2+-free version and maximal passive diameter (diamax) was recorded at each pressure step.
(§2) Myogenic tone was calculated as the percent constriction in relation to the maximal diameter at each respective transmural pressure: tone (% of diamax)=[(diamax−diaactive)/diamax]×100, where diaactive is the vessel diameter in MOPS containing Ca^2+ and diamax is the diameter in Ca^2+-free MOPS. Analyses of vasomotor responses to phenylephrine used the same calculation, only in this case, diaactive represents the vessel diameter at steady state following application of the given agent and diamax represents the maximal diameter measured under Ca^2+-free conditions.

[2] = system: olfactory cerebral arteries; experiment: Myogenic tone of isolated olfactory cerebral arteries after in vivo treatment; parameters: species or system mouse
Protocol: Induction of Subarachnoid Hemorrhage: A well-characterized model of experimental SAH (6) was used. Briefly, each mouse was anaesthetized (isoflurane) and its head was fixed in a stereotactic frame: a 7 mm incision was made along the midline of the anterior scalp and 0.9 mm hole drilled into the skull 4.5 mm anterior to the bregma. A spinal needle was advanced to the chiasmatic cistern: 80 μl of arterial blood was injected into the intracranial space over 10 seconds. […] Following injection, the scalp incision was closed. Buprenorphine (0.05 mg/kg; 0.5-1.0 ml volume) was administered twice/day (initiated immediately following the SAH surgical procedure). Sham-operated animals underwent an identical surgical procedure, with sterile saline injected instead of blood. Olfactory cerebral arteries were isolated at 2 days post-SAH induction.
Isolation and functional assessment of resistance arteries: Mouse olfactory (a first branch of the anterior cerebral artery) and PCAs were carefully dissected, cannulated onto micropipettes, stretched to their in vivo lengths and pressurized to 45 mmHg, as previously described (3,6); mouse skeletal muscle resistance arteries were dissected from the cremaster muscle, cannulated and pressurized to 60 mmHg. All functional experiments were conducted in 3-morpholinopropanesulfonic acid (MOPS) buffered saline at 37° C. with no perfusion. […]
as §1, §2

[3] = system: posterior cerebral arteries; experiment: Phenylephrine responses of isolated posterior cerebral arteries; type: in vivo, mouse
Protocol: Isolation and functional assessment of resistance arteries: Mouse olfactory (a first branch of the anterior cerebral artery) and PCAs were carefully dissected, cannulated onto micropipettes, stretched to their in vivo lengths and pressurized to 45 mmHg, as previously described (3,6); mouse skeletal muscle resistance arteries were dissected from the cremaster muscle, cannulated and pressurized to 60 mmHg. All functional experiments were conducted in 3-morpholinopropanesulfonic acid (MOPS) buffered saline at 37° C. with no perfusion. Vasomotor responses to phenylephrine (5 μmol/L for posterior cerebral arteries, 10 μmol/L for cremaster skeletal muscle arteries) provided an assessment of vessel viability at the beginning and end of each experiment. Arteries failing to show ≥25% constriction to phenylephrine were excluded.
as §2

Structure (SMILES) | mean maximal vessel diameter at 45 mmHg (diamax) ([1]; CFTR KO+C18 group) [μm] | mean maximal vessel diameter at 45 mmHg (diamax) ([1]; HF+C18 group, FIG. 3) [μm] | mean maximal vessel diameter at 45 mmHg (diamax) ([1]; Sham+C18 group, FIG. 12 Panel A (myogenic tone)) [μm] | mean maximal vessel diameter at 45 mmHg (diamax) ([2]; CFTR KO+C18 group) [μm] | mean maximal vessel diameter at 45 mmHg (diamax) ([2]; SAH+C18 group) | mean maximal vessel diameter at 45 mmHg (diamax) ([2]; Sham+C18 group) [pm] | mean maximal vessel diameter at 45 mmHg (diamax) ([3]; HF+C18 group, FIG. 11) [pm] | mean maximal vessel diameter at 45 mmHg (diamax) ([3]; Sham+C18 group, FIG. 12 second panel (phenylephrine)) [μm] | mean maximal vessel diameter at 45 mmHg (diamax) ([2]; SAH+Lum group) [μm]
O=C(Nc1ncc(C(c2ccccc2Cl)N2CCC(O)C2)s1)C1(c2ccc3c(c2)OCO3)CC1 (stereo not drawn) [C18, 1-(benzo[d][1,3]dioxol-5-yl)-N-(5-((2-chlorophenyl)(3-hydroxypyrrolidin-1-yl)methyl)thiazol-2-yl)cyclopropanecarboxamide] | 145±5 | 155±8 | 138±9 | 96±6 | 104±12 μm and 105±12 μm | 110±8 | 140±8 | 130±10 | –
Cc1ccc(NC(=O)C2(c3ccc4c(c3)OC(F)(F)O4)CC2)nc1-c1cccc(C(=O)O)c1 [lumacaftor] | – | – | – | – | – | – | – | – | 87±4
